Assay results taken from patent US20170306005A1 (NASCIENT, published 2017).
These are yes or no findings as the source states them, for the method shown. Some binding calls cover weakened binding; strength is not graded here. For part of these data: Sequences can lack the tags named with a protein.

Assays:
[1] = biological target: T1, human tenascin-C rCd4-His-FBG (rat; human, UniProt P05540 207-392, limits assumed); test: western blot
T1 construct: domain: domains 3 and 4; C-terminal FBG fusion; biotinylated in the ELISA and HTRF screens; also called Hu TNC; human TNC rCd4-His-FBG; not shown: 6His tag
T1 sequence (chain (part 1 of 2)): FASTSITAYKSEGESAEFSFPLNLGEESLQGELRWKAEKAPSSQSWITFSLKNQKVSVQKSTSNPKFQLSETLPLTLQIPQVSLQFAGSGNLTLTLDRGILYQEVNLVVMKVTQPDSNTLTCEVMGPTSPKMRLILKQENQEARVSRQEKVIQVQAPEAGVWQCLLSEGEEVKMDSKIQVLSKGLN
T1 sequence (chain (part 2 of 2)): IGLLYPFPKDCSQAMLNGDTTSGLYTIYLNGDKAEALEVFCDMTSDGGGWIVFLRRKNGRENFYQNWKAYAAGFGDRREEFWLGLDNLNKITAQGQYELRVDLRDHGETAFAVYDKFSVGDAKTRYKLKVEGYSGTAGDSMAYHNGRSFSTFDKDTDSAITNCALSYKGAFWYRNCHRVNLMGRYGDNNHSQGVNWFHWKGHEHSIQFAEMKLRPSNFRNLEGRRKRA

[2] = biological target: T2, human His-FBG citrullinated with PAD2 (human, UniProt P24821 1974-2201, arginines citrullinated by peptidylarginine deiminase 2; positions not stated); test: SPR, captured IgG4, 25 C
T2 construct: also called His-FBG + PAD2; citrullinated His-FBG; not shown: His tag
T2 sequence: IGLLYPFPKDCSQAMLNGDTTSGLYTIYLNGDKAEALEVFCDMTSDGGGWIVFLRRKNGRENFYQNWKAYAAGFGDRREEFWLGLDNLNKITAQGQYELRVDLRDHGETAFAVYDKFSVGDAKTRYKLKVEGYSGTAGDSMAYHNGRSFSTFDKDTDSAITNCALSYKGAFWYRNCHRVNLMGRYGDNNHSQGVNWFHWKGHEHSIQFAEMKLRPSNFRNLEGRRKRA

[3] = biological target: T3, human His-FBG citrullinated with PAD4 (human, UniProt P24821 1974-2201, arginines citrullinated by peptidylarginine deiminase 4; positions not stated); test: SPR, captured IgG4, 25 C
T3 construct: also called His-FBG + PAD4; citrullinated His-FBG; not shown: His tag
T3 sequence: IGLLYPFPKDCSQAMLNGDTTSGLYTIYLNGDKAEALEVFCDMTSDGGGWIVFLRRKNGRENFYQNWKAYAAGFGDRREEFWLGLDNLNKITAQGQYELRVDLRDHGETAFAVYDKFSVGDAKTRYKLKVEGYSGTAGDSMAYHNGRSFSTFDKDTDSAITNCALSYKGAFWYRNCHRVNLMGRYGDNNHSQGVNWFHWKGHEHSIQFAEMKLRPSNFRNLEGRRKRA

[4] = biological target: T1, human tenascin-C rCd4-His-FBG; test: western blot, reducing SDS-PAGE
[5] = biological target: tenascin-C (Nascient), full length (UniProt P24821); test: western blot, reducing SDS-PAGE
[6] = biological target: T1, human tenascin-C rCd4-His-FBG; test: western blot, 10% SDS-PAGE under reducing conditions, nitrocellulose; B12 IgG4 MAb 1:20,000 (0.25 ug/ml) overnight at 4 C; 5 min exposure

Measured: binding

B1: B12 human IgG4 (antibody, V domains shown)
VH: QVQLVESGGGLVQPGRSLRLSCAASGFTFDDYAMHWVRQAPGKGLEWVSGISGSGGSTYYADSVKGRFTISRDNAKNSLYLQMNSLRAEDTALYYCAKDISAVPDTFDIWGQGTMVTVSS
VL: DIQMTQSPASLPTPVGDRVTITCRASQYIQGFLNWYQQKPGKAPKLLIYDASNLETGVPSRFSGSGSGTDFTLTISSLQPEDFATYYCQQSYSTPQTFGQGTKVDIKR
notes: human IgG4 with hinge S241P; also called B12 parent; B12-hIgG4
binds: all assays above
